The record followed here is patent US20180105596A1 (ELSALYS BIOTECH, published 2018).

Results are given in words; binding and its absence hold for the method and conditions named. Binding calls can cover weak binding; strength is not graded here.

The assay deals with murine TYRO3-ECD. The assay can be described thus: sandwich ELISA, Strep-tagged murine Tyro3 ECD captured on StrepMAB plate, scFv 10 µg/mL (Table 16), anti-FLAG-HRP. (In general: An ELISA detects its analyte on a solid surface through an enzyme-linked reagent.)

B1: anti-Tyro3 scFv 2718 (scFv, V domains shown)
VH: EVQLVQSGADVKKPGASLTISCQASGYTFTDYWISWVRQKPGKGLEWMGHINPMRSTTTYGPSFQGHVTISADRSTATAYLQWHSLEASDTAMYYCVRNDNHDDYTYTDDWGPGTLVTVSS
VL: SYELTQPPSVSVSPGQTARITCSGDALPKKYAYWYQQKSGQAPVLVIYEDTKRHSGIPERFSGSSSGTMATLTISGAQVEDEADYYCYSAEHRGNYAVFGGGTKLTVL
notes: Tested as a single-chain Fv made in E. coli
B1: the binding result is “binds”.
